PubChem BioAssay AID686943, Drosophila RNAi Screening Center – 2013

- Screen: 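Knockdowns that increase or decrease active ERK after insulin receptor stimulation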 (primary screen)
- Cell system: Drosophila S2R+ haemocyte-like cells expressing YFP-tagged ERK (Rolled)
- Reagent: long dsRNA against Drosophila genes
- Challenge: insulin stimulation versus unstimulated cells; dose and duration not given
- Read-out: 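Antibody staining for doubly phosphorylated ERK divided by ERK-YFP signal, as plate z-scores, in insulin-treated and untreated cells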
- Direction: replicate 1, z-score of dpERK with insulin and replicate 2, z-score of dpERK with insulin: higher = more active ERK per ERK-YFP after insulin; replicate 1, z-score of dpERK under basal conditions: higher = more basal active ERK per ERK-YFP; replicate 1, z-score of ERK-YFP with insulin: higher = more YFP-tagged ERK signal
The deposit covers about 23,000 reagents; below is an unselected part of those that have a named target and a result. 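Extra replicates exist only for a retested subset of genes; insulin dose and duration not given; both raised and lowered dpERK matter.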 A plus sign joins genes that one reagent is predicted to hit. Reagent sequences are not shown. The record does not give: the amount of reagent, the time to read-out.

target gene	amplicon	replicate 1, z-score of dpERK with insulin	replicate 2, z-score of dpERK with insulin	replicate 1, z-score of dpERK under basal conditions	replicate 1, z-score of ERK-YFP with insulin
Cdc50	DRSC20224	-0.2	0.33	-0.84	0.25
CG42323	DRSC19629	0.3	-0.1	-0.54	-0.29
CG42323	DRSC21397	0.22	0.25	1.21	-0.35
CG2854	DRSC18595	0.03	0.71	1.56	-0.55
CG1317	DRSC08305	-0.37	0.47	0.93	0.27
PGAP2	DRSC00632	0.23	-0.48	-0.27	0.12
CG34025	DRSC08014	-0.2	-0.26	-0.65	0.66
Pos	DRSC15415	-0.46	-0.08	-0.01	0.32
Ir93a	DRSC15212	-0.08	0.44	-0.38	0.69
Ir93a	DRSC15213	0.34	-0.05	0.32	-0.02
Loxl1	DRSC14303	-0.4	-0.12	-1.54	0.22
CG32814	DRSC17670	0.25	0.16	3.39	0.6
CG42260	DRSC04172	1.54	0.56	-0.37	-0.25
CG42260	DRSC04385	0.97	0.23	0.56	-0.2
Hou	DRSC20001	0.25	-0.74	-0.33	0.05
Hou	DRSC22347	0.33	-0.29	0	0.22
CG15914	DRSC19739	0.22	0.2	0.2	0.33
ntc	DRSC08166	0.26	0.14	-0.67	0.14
CG7565	DRSC10881	0.06	-0.06	-0.1	-0.16
Ptp61F	DRSC08683	-1.75	1.23	1.45	0.32

Sorted by “replicate 2, z-score of dpERK with insulin” (high to low): 4 of the entries above.
target gene	amplicon	replicate 1, z-score of dpERK with insulin	replicate 2, z-score of dpERK with insulin	replicate 1, z-score of dpERK under basal conditions	replicate 1, z-score of ERK-YFP with insulin
CG1317	DRSC08305	-0.37	0.47	0.93	0.27
Pos	DRSC15415	-0.46	-0.08	-0.01	0.32
CG34025	DRSC08014	-0.2	-0.26	-0.65	0.66
PGAP2	DRSC00632	0.23	-0.48	-0.27	0.12

Additional results follow.
target gene	amplicon	replicate 1, z-score of dpERK with insulin	replicate 2, z-score of dpERK with insulin	replicate 1, z-score of dpERK under basal conditions	replicate 1, z-score of ERK-YFP with insulin
CG13713	DRSC08322	-0.1	0.18	0.14	-0.35
Gbeta13F	DRSC20247	-0.15	1.39	1.95	0.48
CG7387	DRSC10833	0.52	-0.63	0.62	-0.46
Ilk	DRSC11868	0.11	0.76	0.58	-0.45
CG11436	DRSC17783	-0.66	0.18	0.2	-0.65
MED19	DRSC10516	2.36	2.91	-1.47	-2.25
CG31262	DRSC13216	0.66	0.85	-0.7	-0.17
sa	DRSC11649	-0.94	0.06	-0.54	0.6
CG11112	DRSC06038	-0.55	-0.14	0.65	0.63
CG8818	DRSC07275	0.53	0.31	-0.45	-0.44
Pgls	DRSC19769	1	0.06	-1.1	-0.46
CG8668	DRSC03101	0.31	0.77	-0.65	-0.92
app	DRSC09159	-0.12	-0.81	-0.04	0.07
app	DRSC10246	0.3	0.65	-0.71	-0.48
app	DRSC10526	-0.38	-0.27	0.36	0.64
CG18417	DRSC10319	0.34	0.42	-0.8	0.97
CG7368	DRSC10826	-0.88	0.89	-1.3	0.39
CG7368	DRSC22821	0.54	0.51	-0.52	-0.69
l(2)37Bb	DRSC02088	-0.1	0.25	0.39	0.01
TfIIEalpha	DRSC11303	-0.45	-0.57	-0.28	-0.62
DIP-theta	DRSC00885	0.43	-0.02	0.76	-0.07
DIP-theta	DRSC02340	0.44	0.62	-1.81	-0.59
DIP-theta	DRSC02341	-0.99	0.26	-0.55	2.06
CG14229	DRSC19585	-1.92	-2.35	0.65	4.75
CG4733	DRSC15634	-0.4	1.01	0.07	0.14
Nt5c	DRSC06711	1.52	0.99	3.08	0.37
Ac3	DRSC03692	0.09	-0.03	0.81	0.12
CG14518	DRSC14870	-0.66	0	0.69	0.54
Idua	DRSC02941	-0.45	0.32	-0.55	0.48
Iswi	DRSC07446	-0.37	-0.91	-2.9	-1.64
CG17234	DRSC00490	-0.07	0.56	0.65	-0.44
Prx6c + CG12896 + Prx6b	DRSC06148	0.94	0.26	-0.55	-0.21
CG42304 + Snup	DRSC08276	0.27	0.45	0.41	0.51
CG42304 + Snup	DRSC08277	0.13	0.4	0.64	0.64
CG42304 + Snup	DRSC22781	-0.21	0.18	-1.11	1.11
Ccp84Aa	DRSC12586	-0.54	-0.39	0.22	-0.24
CG42376 + cin	DRSC18752	-1.33	0.07	-0.42	0.57
